Laboratory results as given in paper PMC5559427.
These are yes or no findings as the source states them, for the method shown. In cells and extracts the contact can be indirect. Some binding calls cover weakened binding; strength is not graded here.

Chains of the proteins cited; added tags and fusions are not shown.
UniProt P47819: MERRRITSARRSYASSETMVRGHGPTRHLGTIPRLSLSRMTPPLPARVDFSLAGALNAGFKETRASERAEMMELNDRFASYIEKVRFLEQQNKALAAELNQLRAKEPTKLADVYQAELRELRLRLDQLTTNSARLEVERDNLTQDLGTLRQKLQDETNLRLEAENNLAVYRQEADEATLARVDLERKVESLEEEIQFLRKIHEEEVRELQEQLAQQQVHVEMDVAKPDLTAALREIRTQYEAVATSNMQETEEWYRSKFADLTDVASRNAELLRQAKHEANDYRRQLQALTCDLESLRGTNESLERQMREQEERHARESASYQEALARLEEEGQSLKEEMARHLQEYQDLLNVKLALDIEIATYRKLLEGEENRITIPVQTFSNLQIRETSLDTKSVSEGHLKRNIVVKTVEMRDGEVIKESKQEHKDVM
UniProt P70536: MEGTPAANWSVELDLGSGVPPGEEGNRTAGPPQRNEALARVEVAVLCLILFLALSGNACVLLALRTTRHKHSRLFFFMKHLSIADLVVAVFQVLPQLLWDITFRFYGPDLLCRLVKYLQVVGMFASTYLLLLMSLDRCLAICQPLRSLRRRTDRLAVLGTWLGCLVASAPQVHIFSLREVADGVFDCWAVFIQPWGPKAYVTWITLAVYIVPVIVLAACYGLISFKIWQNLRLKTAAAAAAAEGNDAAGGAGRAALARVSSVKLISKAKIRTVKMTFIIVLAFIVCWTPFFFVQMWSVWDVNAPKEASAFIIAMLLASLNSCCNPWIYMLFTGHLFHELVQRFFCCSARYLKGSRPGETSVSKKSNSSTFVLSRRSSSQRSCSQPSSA

Biological target: glial fibrillary acidic protein (rat (endogenous in SON of Sprague-Dawley rats)) (UniProt P47819)
Experiment: co-IP; SON lysates of three rats, precleared with protein G agarose; mouse anti-GFAP overnight at 4°C, captured on protein G agarose; Western blot of OTRs; two duplicates (IP1, IP2) beside total lysis

binding: binds
Substance: oxytocin receptor (from UniProt P70536 1-388)
